From US7166296B2, “Pharmaceutical formulations and ligands for use therein; mimetics for UEA-1” (Sarlan, Ltd., priority 2001, dated 2007)
For at least one compound, name, drawing or mass did not settle the structure.

Key:
[1] = tested on: UEA-1 binding sites on Caco-2 cell membrane preparations; assay: Two tier competition assay: compound incubated alone with membranes, biotinylated UEA-1 added in next step; parameters: species or system human; conditions: library MSI 27
Procedure: (§1) The epithelial cell binding ability of compounds and mixtures obtained from synthetic combinatorial libraries was determined by competition assays. These assays were set up to measure the inhibition of binding of biotinylated UEA-1 to membrane preparations of the epithelial cell line Caco-2 (colon carcinoma cells-2), by compounds and mixtures of the combinatorial libraries. This cell line is a conventional model for epithelial cells.
(§2) Two competition inhibition assays were used in this case, namely single tier and two tier assays. These assays differed from each other in that in the single tier assay, the mixtures/compounds and the biotinylated UEA-1 were incubated together with the Caco-2 cell membrane preparations, while in case of the two-tier assay, the mixture/compounds were allowed to incubate alone with the cell membranes in the absence of biotinylated UEA-1, which was added in the next step. Addition of the extra step in the two-tier assay was to ensure that the compounds inhibiting the binding of biotinylated UEA-1 to the Caco-2 cell membranes were doing so by themselves binding to surface receptors on the Caco-2 cells and not to the biotinylated UEA-1. Each assay will be described in detail.
• 1. Confluent Caco-2 cell monolayers (grown in 75 cm^2 flasks for up to 1 week at 37° C. and 5% CO2) were washed twice in Dulbecco's PBS (DPBS). • 2. Cell monolayers were treated with 10 mM EDTA-DPBS for 5–10 min at 37° C. and cells were harvested by centrifugation at 1000 rpm for 5 min. • 3. Cells were washed 3 times in DPBS. • 4. […] The cells were homogenised for 30 sec. • 6. The homogenates were centrifuged in hard walled tubes at 40,000 rpm for 45 min at 4° C. • 7. […] The supernatant was removed and stored on ice. The procedure was repeated adding the second supernatant to the first. • 8. The protein concentration was determined using e.g. a Bio-Rad protein assay. • 9. All fractions were stored at −80° C. prior to use. Single Tier Assays: • 1. 96-well microtiter plates were coated with membrane preparations of Caco-2 cells either by allowing them to incubate on the plates for 2½ hours at room temperature or by incubating them overnight at 4° C. 100 μl of 10 μg/ml (in 0.05 M carbonate buffer, pH 9.6) of membrane preparation was added to each well. • 2. […] The plates were flicked out, patted dry and biotinylated UEA-1 was detected with commercial Streptavidin conjugated to horseradish peroxidase (HRP) (CalBiochem). […] The plates were then washed 3–6 times and the biotin-streptavidin binding was detected by adding an HRP substrate OPD (orthophenyl diamine) to each well. […] The OD490 (absorbance at 490 nm) of each well was measured using a conventional 96 well plate reading spectrophotometer. […]

[2] = tested on: UEA-1 binding sites on Caco-2 cell membrane preparations; assay: Single tier competition assay: inhibition of biotinylated UEA-1 binding, compound and biotinylated UEA-1 incubated together; parameters: species or system human; conditions: library MSI 27
Procedure: as §1, §2
• 1. Confluent Caco-2 cell monolayers (grown in 75 cm^2 flasks for up to 1 week at 37° C. and 5% CO2) were washed twice in Dulbecco's PBS (DPBS). • 2. Cell monolayers were treated with 10 mM EDTA-DPBS for 5–10 min at 37° C. and cells were harvested by centrifugation at 1000 rpm for 5 min. • 3. Cells were washed 3 times in DPBS. • 4. […] The cells were homogenised for 30 sec. • 6. The homogenates were centrifuged in hard walled tubes at 40,000 rpm for 45 min at 4° C. • 7. […] The supernatant was removed and stored on ice. The procedure was repeated adding the second supernatant to the first. • 8. The protein concentration was determined using e.g. a Bio-Rad protein assay. • 9. All fractions were stored at −80° C. prior to use. Single Tier Assays: • 1. 96-well microtiter plates were coated with membrane preparations of Caco-2 cells either by allowing them to incubate on the plates for 2½ hours at room temperature or by incubating them overnight at 4° C. 100 μl of 10 μg/ml (in 0.05 M carbonate buffer, pH 9.6) of membrane preparation was added to each well. • 2. The plates were flicked out, patted dry and blocked with bovine serum albumin (BSA)/DPBS (200 μl/well) for 1 to 4 hours at room temperature after which they were washed three times in water. • 3. […] Control wells were also set up in which the Caco-2 cell membrane preparations were incubated with unconjugated UEA-1. […] Following overnight incubation the plates were washed thoroughly (3–6 times). The plates were flicked out, patted dry and biotinylated UEA-1 was detected with commercial Streptavidin conjugated to horseradish peroxidase (HRP) (CalBiochem). […] The plates were left to incubate for an hour at room temperature. • 6. The plates were then washed 3–6 times and the biotin-streptavidin binding was detected by adding an HRP substrate OPD (orthophenyl diamine) to each well. 100 μl/well of this substrate at a final concentration of 1.6 mg/ml was added to each well. Before adding to the wells, this substrate was activated by addition of 50 μl of 3% H2O2 per plate and the reaction was allowed to develop in the dark. • 7. […] The OD490 (absorbance at 490 nm) of each well was measured using a conventional 96 well plate reading spectrophotometer. […]

COc1cc(C(=O)NCCCCC(NC(C)=O)C(N)=O)cc(OC)c1OC (stereo not drawn) [Cpd 12]
Two Tier Assay IC50 [1]: 250.00 µg/mL
Single Tier Assay IC50 [2]: ≥ 250.00 µg/mL

COc1cc(C(=O)NCCCC[C@@H](NC(=O)[C@@H](CCCCNC(=O)c2cc(OC)c(OC)c(OC)c2)NC(=O)[C@@H](CCCCNC(=O)c2cc(OC)c(OC)c(OC)c2)NC(=O)c2cc(OC)c(OC)c(OC)c2)C(N)=O)cc(OC)c1OC [Cpd 44]
Two Tier Assay IC50 [1]: 250.00 µg/mL
Single Tier Assay IC50 [2]: ≥ 250.00 µg/mL

COc1cc(C(=O)NCCCCC(NC(=O)C(CCCCNC(=O)c2cc(OC)c(OC)c(OC)c2)NC(=O)c2cc(OC)c(OC)c(OC)c2)C(N)=O)cc(OC)c1OC (stereo not drawn) [Cpd 28]
Two Tier Assay IC50 [1]: 250.00 µg/mL
Single Tier Assay IC50 [2]: ≥ 250.00 µg/mL

COc1cc(C(=O)NCCCCC(NC(=O)c2cc(OC)c(OC)c(OC)c2)C(N)=O)cc(OC)c1OC (stereo not drawn) [Cpd 4]
Two Tier Assay IC50 [1]: 250.00 µg/mL
Single Tier Assay IC50 [2]: ≥ 250.00 µg/mL

COc1cc(C(=O)NCCCCC(NC(=O)C(CCCCNC(=O)c2cc(OC)c(OC)c(OC)c2)NC(C)=O)C(N)=O)cc(OC)c1OC (stereo not drawn) [Cpd 36]
Single Tier Assay IC50 [2]: ≥ 250.00 µg/mL
